At least one read-out could not be matched to a standard name with certainty.
Tested on: miR-124
Test: Induction of miR-124 expression in PBMC cells (qPCR)
Assay type: cell-based
Details: 0.1 μM compound, 72 hours, human PBMCs stimulated with PMA/ionomycin, miR-191 reference gene
Experimental: This study evaluated the ability of the compound of the present invention to influence miR-124 transcriptional activity in vitro. The experiment analyzed miR-124 expression in human PBMCs (Sailybio) using quantitative PCR (qPCR).
Thawed human PBMCs (1 mL) were added to 19 mL of culture medium (RPMI1640+10% hFBS+1‰ 2-mercaptoethanol) and the PBMCs were incubated in a cell culture incubator for 30 minutes. The PBMCs were collected and the cells (3.0*10^6 cells/well/3 mL) were resuspended in medium containing PMA (10 ng/mL; Invivogen) and ionomycin (200 ng/mL; Invivogen). The cells were incubated in a 6-well plate for 48 hours. Diluted compound was added to the cells to achieve a final concentration of 0.1 μM. After 72 hours, the samples were centrifuged and the cells were collected.
Total miRNA was extracted from the cells using the MiPure Cell/Tissue miRNA Kit (Vazyme) according to the manufacturer's instructions, followed by purification. The purified samples were treated with genomic DNA elimination buffer, and reverse transcription was performed using a GeneAmp PCR System. The resulting cDNA was subjected to quantitative real-time PCR (qPCR) analysis on a QuantStudio™ 7 Flex Real-Time PCR System. […] The relative expression of miR-124 was calculated using the following formula: […]

For `FC(F)(F)Oc1ccc(Nc2ccc3cccc(Cl)c3n2)cc1` [ABX464, reference compound], the “miR-124 expression, Fold change vs DMSO” value was 16.17.

Source: patent US20260232662A1, “MIR-124 INDUCER, AND PREPARATION METHOD THEREFOR AND USE THEREOF” (NANJING SYNNOCARE PHARMACEUTICAL TECHNOLOGY CO., LTD., priority 2023, published 2026)
